PubChem BioAssay AID1259254 – NCATS | 2017

Screen: 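Finding genes that stop cells copying their DNA twice in one cycle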 (primary screen)
Cell system: human HCT116 colorectal cancer cells
Reagents: single siRNA against human genes
Timing: 3 days
Measured: 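Nuclei stained with Hoechst and imaged; cell-cycle phase assigned by DNA content; G2 share scaled per plate, non-targeting siRNA 0%, GMNN siRNA 100%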
Scale: G2 robust z-score and G2 cells, % of GMNN control: higher = more G2 cells, more excess DNA replication
Hit rule: 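Active siRNAs have a G2 robust z of 5 or more median absolute deviations over the median, which in these data means about 38% or higher of GMNN control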
This is one part, drawn at random, of about 59,000 reagents tested. Of all reagents, about 1,550 (2.6%) are marked active. 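G2 share is only a proxy for re-replication; each gene was hit by three separate siRNAs, and active genes were retested.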 Unmarked entries are inactive. The numbers tell different reagents against one gene apart. Not all columns of the deposit are shown. Not given: the amount of reagent.

no.	Target gene	siRNA no.	G2 robust z-score	G2 cells, % of GMNN control
1	ADGRD1	1	-0.951	-3.72
2	ADGRD1	2	1.51	13.6
3	ADGRD1	3	1.17	11.2
4	IGLON5	1	-0.492	-0.492
5	IGLON5	2	-0.829	-2.87
6	IGLON5	3	0.113	3.76
7	C8orf44	1	-0.257	1.16
8	C8orf44	2	-0.632	-1.48
9	C8orf44	3	-0.164	1.81
10	PKP1	1	2.82	22.8
11	PKP1	2	-0.17	1.77
12	PKP1	3	1.06	10.4
13	CEP152	1	0.913	9.39
14	CEP152	2	0.137	3.93
15	CEP152	3	-0.174	1.74
16	S100A14	1	1.77	15.4
17	S100A14	2	-1.16	-5.18
18	S100A14	3	1.56	13.9
19	HEATR9	1	1.6	14.2
20	HEATR9	2	-0.686	-1.86
21	HEATR9	3	-0.644	-1.56
22	LOC401218	1	0.382	5.66
23	LOC401218	2	1.11	10.8
24	LOC401218	3	2.21	18.5
25	DEFB118	1	1.05	10.3
26	DEFB118	2	-0.687	-1.86
27	DEFB118	3	1.66	14.7
28	ZNF286B	1	0.688	7.81
29	ZNF286B	2	1.2	11.4
30	ZNF286B	3	-0.562	-0.988
31	PKIB	1	-0.91	-3.43
32	PKIB	2	-1.16	-5.19
33	PKIB	3	-0.442	-0.143
34	ACSS3	1	-0.443	-0.146
35	ACSS3	2	-0.371	0.36
36	ACSS3	3	-0.493	-0.502
37	GJB4	1	2.69	21.9
38	GJB4	2	0.671	7.69
39	GJB4	3	-0.5	-0.552
40	SAYSD1	1	0.535	6.73
41	SAYSD1	2	0.231	4.6
42	SAYSD1	3	-0.388	0.241
43	CDH18	1	-0.701	-1.96
44	CDH18	2	1.86	16
45	CDH18	3	-0.143	1.96
46	BCS1L	1	0.455	6.17
47	BCS1L	2	-0.486	-0.451
48	BCS1L	3	-1.48	-7.47
49	SLC2A14	1	0.671	7.69
50	SLC2A14	2	0.409	5.84
51	SLC2A14	3	-0.551	-0.906
52	SUMO4	1	1.66	14.6
53	SUMO4	2	0.988	9.92
54	SUMO4	3	3.27	25.9
55	SEMA6A	1	-0.377	0.314
56	SEMA6A	2	0.339	5.35
57	SEMA6A	3	3.4	26.9
58	MS4A12	1	-0.0639	2.52
59	MS4A12	2	-0.241	1.27
60	MS4A12	3	-0.0614	2.54
61	BEND4	1	0.958	9.71
62	BEND4	2	-0.318	0.733
63	BEND4	3	-0.408	0.0968
64	IFNL2	1	-0.0393	2.69
65	IFNL2	2	1.99	16.9
66	IFNL2	3	-0.105	2.23
67	SORBS3	1	3.01	24.2
68	SORBS3	2	-0.84	-2.94
69	SORBS3	3	-0.828	-2.86
